Some results were stated once for a whole list of compounds, not compound by compound.
Test system: Heliothis virescens eggs
Test: Activity against Heliothis virescens (application to eggs) (Example B4)
Assay type: in vivo
Settings: eggs on cotton, spray 400 ppm, after 8 days

Question: With `Cc1cc(C(F)(C(F)(F)F)C(F)(F)F)ccc1NC(=O)c1cccc(I)c1C(=O)NC(C)(C)CS(C)(=N)=O` (stereo not drawn) [Compound T1.1.1] as the compound, how does the “percentage hatching rate of the eggs and survival rate of the caterpillars (% activity)” value (shortened to “percentage hatching rate … (% activity)”) read?
Answer: The value was “over 80%”.

Question: `Cc1cc(C(F)(C(F)(F)F)C(F)(F)F)ccc1NC(=O)c1cccc(Cl)c1C(=O)NC(C)(C)CS(C)(=N)=O` (stereo not drawn) [Compound T1.1.136] was tested. Which “percentage hatching rate … (% activity)” value did it give?
Answer: Its value is “over 80%”.

Question: How did the “percentage hatching rate … (% activity)” value turn out when `Cc1cc(C(F)(C(F)(F)F)C(F)(F)F)ccc1NC(=O)c1cccc(I)c1C(=O)NC(C)(C)CS(C)(=O)=NC(=O)OC(C)(C)C` (stereo not drawn) [Compound T55.1.1] was run?
Answer: The value was “over 80%”.

Question: How did the “percentage hatching rate … (% activity)” value turn out when `Cc1cc(C(F)(C(F)(F)F)C(F)(F)F)ccc1NC(=O)c1cccc(Cl)c1C(=O)NC(C)(C)CS(C)(=O)=NC(=O)OC(C)(C)C` (stereo not drawn) [Compound T55.1.136] was run?
Answer: The value was “over 80%”.

Question: For `Cc1cc(C(F)(C(F)(F)F)C(F)(F)F)ccc1NC(=O)c1cccc(I)c1C(=O)NC(C)(C)C/S(C)=N/C(=O)OC(C)(C)C` (stereo not drawn) [Compound T64.1.1], which “percentage hatching rate … (% activity)” value is on record?
Answer: Its value is “over 80%”.

Question: `Cc1cc(C(F)(C(F)(F)F)C(F)(F)F)ccc1NC(=O)c1cccc(Cl)c1C(=O)NC(C)(C)C/S(C)=N/C(=O)OC(C)(C)C` (stereo not drawn) [Compound T64.1.136] was tested. Which “percentage hatching rate … (% activity)” value did it give?
Answer: Its value is “over 80%”.

— patent US7612018B2, “Insecticides” (Syngenta Crop Protection, Inc., priority 2004, dated 2009)
